Experimental data taken from PubChem BioAssay AID1671190 (National Center for Advancing Translational Sciences (NCATS), 2021).
The campaign covered roughly 580,000 compounds. About 6,100 (1.1%) were called active. Inconclusive means that the source gave no clear call. Such entries were picked first, then a sample of the others. The call rests on the fitted dose curve; in most records, active means well fitted inhibition curve with a large enough effect; inconclusive means small, poorly fitted or top-dose-only effect, or another doubt; inactive means no such curve, though single readings can be large or run the other way. Where the call is inconclusive, the potency comes from a doubtful curve fit.

The chains behind the UniProt entries cited, without tags or fusion partners.
UniProt P18054, whole entry, looked up: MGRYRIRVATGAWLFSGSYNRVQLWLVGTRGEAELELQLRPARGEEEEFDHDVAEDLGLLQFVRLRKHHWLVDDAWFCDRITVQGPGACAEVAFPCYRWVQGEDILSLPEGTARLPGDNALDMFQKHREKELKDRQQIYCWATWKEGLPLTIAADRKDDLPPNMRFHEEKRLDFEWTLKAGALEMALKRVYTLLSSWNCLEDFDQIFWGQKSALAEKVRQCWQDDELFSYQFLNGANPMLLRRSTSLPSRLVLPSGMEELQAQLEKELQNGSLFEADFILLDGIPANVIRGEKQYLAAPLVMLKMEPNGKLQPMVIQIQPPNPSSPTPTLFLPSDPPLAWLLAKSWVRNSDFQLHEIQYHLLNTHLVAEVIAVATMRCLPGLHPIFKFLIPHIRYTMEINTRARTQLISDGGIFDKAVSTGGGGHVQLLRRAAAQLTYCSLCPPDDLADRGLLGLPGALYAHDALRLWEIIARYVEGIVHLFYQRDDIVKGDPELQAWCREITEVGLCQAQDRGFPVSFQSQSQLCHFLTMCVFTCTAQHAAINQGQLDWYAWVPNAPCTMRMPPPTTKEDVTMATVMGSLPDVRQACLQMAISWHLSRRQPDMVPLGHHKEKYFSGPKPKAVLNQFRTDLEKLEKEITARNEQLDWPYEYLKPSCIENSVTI

Target: Polyunsaturated fatty acid lipoxygenase ALOX12 (Homo sapiens) (UniProt P18054)
Assay: Primary qHTS assay for inhibitors of human arachidonate 12S-lipoxygenase (ALOX12): Round 2
Conditions: purified 12hLO, xylenol orange hydroperoxide absorbance; activity change, negative = inhibition: at 108 µM (top of the series) unless noted
Method in brief: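 Hydroperoxide product was detected by ferrous iron/xylenol orange as the 573 to 405 nm absorbance ratio. Arachidonic acid at 40 uM (final) was turned over for 30 min at room temperature by 150 nM human 12hLO, pH 7.0 Hepes buffer, after 15 min compound preincubation.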
On the % scale 0 is the no-effect control and ±100 the full control effect; potency means the concentration at half of the fitted maximal effect.

Structure (SMILES)	Potency	activity change, negative = inhibition
CC(=O)N1CCN(S(=O)(=O)c2cccc(C(=O)NC3CC3)c2)CC1	inactive	
NC(=O)CC[C@@H]1NC(=O)[C@@H]2CCCN2C(=O)c2cc([N+](=O)[O-])cc(I)c2NCCC[C@@H](C(N)=O)NC1=O	inconclusive: 70.8 µM [inhibitor, partial curve, poor fit]	
COc1ccc(/C=N/n2c(COc3ccccc3)n[nH]c2=S)cc1OC	inconclusive: 39.8 µM [inhibitor, partial curve, poor fit]	
N#Cc1cc(NC(=O)Nc2nnc(-c3ccncc3)s2)ccc1-c1cn[nH]c1	inconclusive: 10.9 µM [inhibitor, partial curve, poor fit]	
O=C(O)c1c(-c2ccc(Cl)cc2)cn2ccccc12	inconclusive: 17.8 µM [inhibitor, partial curve]	
O=S(=O)(Nc1nc2ccccc2nc1Nc1ccc2c(c1)OCO2)c1ccc(Cl)cc1	inactive	
CCCSc1ccc([C@@H]2[C@H]3C(=O)N(CC)C(=O)[C@H]3[C@]3(C(=O)OC)CCCN23)cc1OC	inconclusive: 39.8 µM [inhibitor, partial curve]	
O=C1Cc2ccccc2Sc2ccc(O)cc21	inconclusive: 44.7 µM [inhibitor, partial curve, poor fit]	
O=C(NCc1cccs1)c1ccc2sc(C3=C[C@@H](O)[C@@H](O)[C@@H](CO)O3)nc2c1	inconclusive: 44.7 µM [inhibitor, single point]	
COc1ccc(S(=O)(=O)N2CCOCC2)cc1NC(=O)c1cccc2c(=O)c(C)c(-c3ccccc3)oc12	inconclusive: 141 µM [inhibitor, single point]	
Oc1cc2c(cc1O)[C@H](c1ccccc1)CNCC2	inconclusive: 10 µM [inhibitor, full curve, poor fit]	
CCc1nnc(NC(=O)c2cccnc2)s1	inconclusive: 44.7 µM [inhibitor, partial curve, poor fit]	
CCN1CCN(C(c2cc(OC)ccc2OC)c2nnnn2Cc2ccccc2)CC1 (stereo not given)	inconclusive: 35.5 µM [inhibitor, partial curve, poor fit]	
CCOC(=O)CNCCC(=O)c1ccc(Br)cc1	active: 28.2 µM	
COc1ccc(-c2cc(C(=O)NC3CC3)c3c(C)nn(-c4ccccc4)c3n2)cc1		inactive: 5.77% [at 6.33 µM]
COCCn1nnnc1C(c1ccccc1)N1CCN(c2ccccc2)CC1 (stereo not given)	inconclusive: 44.7 µM [inhibitor, partial curve, poor fit]	
COc1ccc(S(=O)(=O)c2ccc(OC)cc2)cc1	inactive	
C/C(=N\NS(=O)(=O)c1ccc(Br)cc1)c1ccc2c(c1)OCO2	inconclusive: 3.16 µM [inhibitor, full curve, poor fit]	
CC1CCCC(=NNc2ccc3ccccc3n2)C1 (stereo not given)	inconclusive: 39.8 µM [inhibitor, partial curve]	
CCOC(=O)Cc1csc(NC(=O)Nc2cccs2)n1	inconclusive: 70.8 µM [inhibitor, single point]	
CC(C)C(=O)N1CCC(NC(=O)CCn2ccc3ccccc32)CC1	inconclusive: 56.2 µM [inhibitor, partial curve, poor fit]	
O=C(O)C(c1c[nH]c2ccccc12)N1CCc2ccccc2C1 (stereo not given)	inconclusive: 100 µM [inhibitor, single point]	

Structure (SMILES)	Potency	activity change, negative = inhibition
COc1cc(C(C[N+](=O)[O-])c2c(C)[nH]c3ccccc23)ccc1O (stereo not given)	inconclusive: 79.4 µM [inhibitor, single point]	
FC(F)(F)Oc1ccccc1C(c1nnnn1C1CCCC1)N1CCN(C/C=C/c2ccccc2)CC1 (stereo not given)	inconclusive: 50.1 µM [inhibitor, partial curve, poor fit]	
Cc1cc(/C=C(/CCCC(=O)O)c2nc3ccccc3s2)cc(C)c1O	inconclusive: 100 µM [inhibitor, single point]	
CN(C)C(CNS(=O)(=O)c1cc([N+](=O)[O-])ccc1Cl)c1ccco1 (stereo not given)	inconclusive: 50.1 µM [inhibitor, partial curve, poor fit]	
CCCOc1nc2ccccc2nc1N1CCC(C(=O)NC2CCCC2)CC1	inconclusive: 39.8 µM [inhibitor, full curve, poor fit]	
O=C1N/C(=N/S(=O)(=O)Cc2ccccc2)S/C1=C/c1ccc2c(c1)OCO2	inconclusive: 79.4 µM [inhibitor, partial curve, poor fit]	
Cc1ccc(CN2CCN(Cc3ccncc3)CC2CCO)o1 (stereo not given)	inactive	
CCOc1ccc2c(c1)NC(c1cccs1)=NC(c1ccc(F)cc1)=N2	inconclusive: 3.55 µM [inhibitor, full curve, poor fit]	
Cc1ncc(S(=O)(=O)c2ccccc2)c(-c2ccccc2)n1	inactive	
COc1ccc(NC(=S)N/C(=N/CS(=O)(=O)c2ccccc2)c2ccccc2)cc1	inconclusive: 2.82 µM [inhibitor, full curve, poor fit]	
CCn1c(=O)c(-c2noc(C(=O)N3CCC(c4ccccc4)C3)n2)nn(-c2ccc(C)cc2)c1=O (stereo not given)	inconclusive: 39.8 µM [inhibitor, partial curve, poor fit]	
Cc1ccc(-c2cc(C(=O)N3CCC(c4nc(CCOCC5CC5)no4)C3)[nH]n2)cc1 (stereo not given)	inactive	
CCOc1ccc(NS(=O)(=O)c2ccc(C(=O)NCC(c3ccco3)N3CCCCC3)cc2)cc1 (stereo not given)	inconclusive: 7.94 µM [inhibitor, full curve]	
CCOc1cc(S(=O)(=O)N(CC)CC)ccc1Br	inconclusive: 1.58 µM [inhibitor, full curve, poor fit]	
Cc1cccc(CSCCNC(=O)CSCc2ccc([N+](=O)[O-])cc2)c1	inconclusive: 2 µM [inhibitor, full curve, poor fit]	
CCCNC(=O)N1CCCCCC1CN1CCC(OC)CC1 (stereo not given)	inactive	
COc1ccc(NS(=O)(=O)c2ccc(N3CCOCC3)c(NC(=O)c3ccc(F)cc3)c2)cc1	inactive	
CCOc1cc2c(cc1/C=C(/C#N)c1ccc(C(=O)O)cc1)OCO2	inconclusive: 126 µM [inhibitor, partial curve, poor fit]	
COCC(O)CNC(=O)COc1ccc2c(=O)c(-c3ccc(Cl)cc3)c(C)oc2c1 (stereo not given)	inactive	
COC(=O)c1cc(NC(=O)Cn2nc(-c3ccc(C)c(C)c3)ccc2=O)cc(C(=O)OC)c1	inconclusive: 56.2 µM [inhibitor, partial curve, poor fit]	
COc1ccc(S(=O)(=O)n2[nH]c(=O)c(CCO)c2C)c([N+](=O)[O-])c1	inactive	
Cc1cnc(C(=O)Nc2ccc(F)cc2)cn1	inactive	

As entered above:
Entry for COc1cc(C(C[N+](=O)[O-])c2c(C)[nH]c3ccccc23)ccc1O (stereo not given) under Potency: inconclusive: 79.4 µM [inhibitor, single point]
Entry for COc1ccc(NC(=S)N/C(=N/CS(=O)(=O)c2ccccc2)c2ccccc2)cc1 under Potency: inconclusive: 2.82 µM [inhibitor, full curve, poor fit]
Entry for Cc1cnc(C(=O)Nc2ccc(F)cc2)cn1 under Potency: inactive
Entry for CCOc1cc2c(cc1/C=C(/C#N)c1ccc(C(=O)O)cc1)OCO2 under Potency: inconclusive: 126 µM [inhibitor, partial curve, poor fit]

Next part:

Structure (SMILES)	Potency	activity change, negative = inhibition
CCC(C)NC(=O)C1=CC(c2ccc3c(c2)OCO3)=NS(=O)(=O)N1C (stereo not given)	inconclusive: 79.4 µM [inhibitor, single point]	
Cc1ccc(Cc2c(C3CCCCC3)nc3c4ccccc4ccn23)cc1	inconclusive: 7.08 µM [inhibitor, full curve, poor fit]	
COc1ccc(NC(=O)Nc2ccc3c(c2)C(=O)N([C@@H](C)CO)C[C@@H](C)[C@@H](CN(C)S(=O)(=O)c2cccs2)O3)cc1	inconclusive: 100 µM [inhibitor, single point]	
CCCC(=O)NC(=S)Nc1cccc(Cl)c1N1CCCC1	inconclusive: 79.4 µM [inhibitor, single point]	
CCCCN(C=O)c1c(CC)nc2c(OCCn3cccc3)cccn12	inactive	
CC(C)(C)c1ccc(C(=O)N2CCCCC2CCN2CCCCC2)cc1 (stereo not given)	inconclusive: 39.8 µM [inhibitor, partial curve, poor fit]	
O=C(COC(=O)C12CC3CC(CC(Br)(C3)C1)C2)Nc1ccccc1[N+](=O)[O-]	inconclusive: 50.1 µM [inhibitor, partial curve, poor fit]	
Cc1cccc(NC2=NS(=O)(=O)c3ccccc32)c1C	inactive	
Cc1ccc2oc(C(=O)Nc3nnc(C(C)C)s3)cc(=O)c2c1	inactive	
O=C(C=C1SCCS1)/C=C/c1ccco1	inconclusive: 17.8 µM [inhibitor, partial curve, poor fit]	
Cc1nc(SCN2C(=O)c3ccccc3C2=O)n[nH]1	inactive	
N#Cc1ccc(S(=O)(=O)N2CC[C@H]3C(=O)NCCCCCCN(Cc4ccncc4)[C@@H]3C2)cc1	inactive	
COc1ccc(NC(=S)NN2C(C)CCCC2C)cc1 (stereo not given)	inconclusive: 100 µM [inhibitor, single point]	
COC(=O)C(Cc1ccc(OC(=O)c2ccccc2C)cc1)N1Cc2ccccc2C1=O (stereo not given)	inactive	
COC(=O)c1ccc(Cn2nnc3c(=O)[nH]c(C4CCCN(S(=O)(=O)c5cccc(Cl)c5)C4)nc32)cc1 (stereo not given)	inconclusive: 126 µM [inhibitor, partial curve, poor fit]	
COc1ccc(-c2nc(S(=O)(=O)c3ccc(C)cc3)c(N3CCCC3)o2)cc1	inconclusive: 3.55 µM [inhibitor, full curve, poor fit]	
CC(=O)Nc1nc(C)c(-c2ccc(Cl)c(S(=O)(=O)NCCO)c2)s1	inactive	
CC(C)(c1ccccc1)c1ccc(OCCCN2CCNCC2)cc1	inconclusive: 14.1 µM [inhibitor, partial curve, poor fit]	
COc1ccccc1NS(=O)(=O)c1cc(NC(C)=O)ccc1N1CCCCC1	inconclusive: 39.8 µM [inhibitor, partial curve]	
O=C(c1cc2ccccc2o1)N1CCN=C1SCc1cccnc1	inactive	
Cc1csc(NC(=O)CCc2ncc(-c3ccc(Cl)cc3)o2)n1	inconclusive: 100 µM [inhibitor, single point]	
